Values of other authors in US20170354669A1, “DISRUPTION OF THE INTERACTION BETWEEN AMYLOID BETA PEPTIDE AND DIETARY LIPIDS” (The Trustees of Columbia University in the City of New York, priority 2016, published 2017).
For at least one compound, name, drawing or mass did not settle the structure.

Details: estimated, reference 98; cited from earlier work

With CC/C=C\C/C=C\C/C=C\C/C=C\C/C=C\C/C=C\CCC(=O)O [DHA, docosahexaenoic acid] as the molecule, how does the “critical micelle concentration (CMC)” value read?
Its value is ~60 µM.
